# Data published in PubChem BioAssay AID330 (DTP/NCI, 2004).
# The list does not hold the whole screen: it is rich in T/C values a quarter to a half above the control, in often repeated tests (any T/C) and in doses without a T/C. Further doses and runs are listed elsewhere. T/C gives the treated animals as a percentage of the vehicle group. Some entries give survivors of the animals treated and no T/C: the source files T/C as zero there, which appears to mark a toxic dose or a test without result, not a measured value. Some survivor counts are full or nearly so, which does not show that the dose was tolerated: survival well below the control is almost never listed, so the zero probably covers shortened survival too. Survivors were counted at the toxicity check, usually on the fifth day, unless a day is given; later deaths do not show. Schedules are NCI's codes, taken here to give the interval after Q, in days (D) or hours (H), and the number of doses after X. For survival time, the PubChem record calls one and a half times the control and up active, and a quarter to a half above the control has no call in these data; cut-offs in other NCI protocols can differ. Some doses were run more than once; the results are listed from low to high.
# Test system: P388 leukemia ip, CD2F1 mice, survival T/C
# Assay: NCI In Vivo Anticancer Drug Screen. Data for tumor model P388 Leukemia (intraperitoneal) in CD2F1 (CDF1) mice
# Settings: T/C endpoint: median survival time, higher T/C = longer survival
# [1] = dose: 50.0 mg/kg/injection, schedule: Q01DX009 (ip), vehicle: saline with Tween-80
# [2] = dose: 100.0 mg/kg/injection, schedule: Q01DX009 (ip), vehicle: saline with Tween-80
# [3] = dose: 100.0 mg/kg/injection, schedule: Q01DX005 (ip), vehicle: Klucel (hydroxypropylcellulose) (HPC)
# [4] = dose: 200.0 mg/kg/injection, schedule: Q01DX005 (ip), vehicle: Klucel (hydroxypropylcellulose) (HPC)
smiles,measurement,setting,value
CN1CC(C2(O)CCN(C)C2=O)C(O)C1=O (stereo not drawn),survivor count,"dose: 400.0 mg/kg/injection, schedule: Q01DX001 (ip), vehicle: saline",3 of 6
COc1ccc(NCCc2ccc(-n3ncc(C(=O)NN)c3N)nn2)cc1OC,survivor count,"dose: 300.0 mg/kg/injection, schedule: Q01DX005 (ip), vehicle: other",1 of 5
[Se]c1nc(N2CCOCC2)ncc1-c1ccccc1,survivor count,[1],6 of 6
same,survivor count,[2],6 of 6
CCN(CC)CCOC(C)(C#CC(C)(O)CC)CC (stereo not drawn),survivor count,"dose: 200.0 mg/kg/injection, schedule: Q01DX005 (ip), vehicle: saline with Tween-80",0 of 6
CC(C)N1C(Nc2ccccn2)C(C)(C)C(C)(C)C1Nc1ccccn1 (stereo not drawn),T/C,"dose: 60.0 mg/kg/injection, schedule: Q01DX005 (ip), vehicle: Klucel (hydroxypropylcellulose) (HPC)",126 and 134 % of control
same,T/C,"dose: 120.0 mg/kg/injection, schedule: Q01DX005 (ip), vehicle: Klucel (hydroxypropylcellulose) (HPC)",134 and 147 % of control
same,survivor count,"dose: 480.0 mg/kg/injection, schedule: Q01DX005 (ip), vehicle: Klucel (hydroxypropylcellulose) (HPC)",0 of 6
CC1CC(C)CN(C)C1 (stereo not drawn),survivor count,"dose: 200.0 mg/kg/injection, schedule: Q01DX005 (ip), vehicle: saline",0 of 6
CC1(C)N=C(N)N=C(N)N1c1ccc(OCc2ccc(C(=O)Nc3cccc(S(=O)(=O)F)c3)cc2)c(Cl)c1,survivor count,"dose: 200.0 mg/kg/injection, schedule: Q04DX003 (ip), vehicle: saline",5 of 6
same,survivor count,"dose: 400.0 mg/kg/injection, schedule: Q04DX003 (ip), vehicle: saline",3 of 6
Cc1ccc(CCN2CSC(=S)N(CCc3ccc(C)cc3)C2)cc1,survivor count,"dose: 100.0 mg/kg/injection, schedule: Q01DX009 (ip), vehicle: other",6 of 6
same,survivor count,"dose: 200.0 mg/kg/injection, schedule: Q01DX009 (ip), vehicle: other",4 of 6
O=C(OCC1OC(O)(COC(=O)c2ccccc2)C(OC(=O)c2ccccc2)C1OC(=O)c1ccccc1)c1ccccc1 (stereo not drawn),survivor count,[3],5 of 5
same,survivor count,[4],5 of 5
Nc1ncnc2c1nc([Se])n2C1OC(CO)C(O)C1O (stereo not drawn),survivor count,"dose: 50.0 mg/kg/injection, schedule: Q01DX005 (ip), vehicle: other",3 of 3
Nc1n[n+](C2CCCCC2)no1,survivor count,"dose: 25.0 mg/kg/injection, schedule: Q01DX009 (ip), vehicle: water",1 of 6
same,survivor count,"dose: 50.0 mg/kg/injection, schedule: Q01DX009 (ip), vehicle: water",0 of 6
same,survivor count,"dose: 100.0 mg/kg/injection, schedule: Q01DX009 (ip), vehicle: water",0 of 6
CC1(C)CCCC2=C1C(=O)N(SC(Cl)(Cl)Cl)C2=O,survivor count,[3],0 of 6
same,survivor count,[4],0 of 6
Nc1ccc2nc3cc4c5ccccc5c(=O)c5cccc(c54)n3c(=O)c2c1,survivor count,"dose: 100.0 mg/kg/injection, schedule: Q01DX005 (ip), vehicle: Klucel + Tween-80",0 of 6
same,survivor count,"dose: 200.0 mg/kg/injection, schedule: Q01DX005 (ip), vehicle: Klucel + Tween-80",0 of 6
COc1ccc2[nH]c3c(C)c4cc[n+](C)c(C)c4cc3c2c1,T/C,"dose: 80.0 mg/kg/injection, schedule: Q04DX002 (ip), vehicle: water",130 % of control
same,survivor count,"dose: 160.0 mg/kg/injection, schedule: Q04DX002 (ip), vehicle: water",2 of 6
CN(C)c1ccc(N=C2C=CC(=O)C=C2)cc1,survivor count,[1],3 of 6
same,survivor count,[2],0 of 6
same,survivor count,"dose: 200.0 mg/kg/injection, schedule: Q01DX009 (ip), vehicle: saline with Tween-80",0 of 6
